Values from PubChem BioAssay AID652272 (Drosophila RNAi Screening Center, 2013)
Screen: 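Genes whose knock-down decreases or increases Hedgehog reporter output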 (primary screen). Cell system: Drosophila clone 8 (Cl8) cells. Reagents: long dsRNA against Drosophila genes. Read-out: 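Plate reader light from a firefly reporter under a ptc promoter fragment that responds to Hedgehog, with Renilla light as transfection reference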. Scale: firefly Hh reporter signal: higher = more ptc reporter light; Renilla reference signal: higher = more Renilla control light. Active means: 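Called a hit if the two-replicate mean z-score lies below -2 or above +3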. Meaning of the calls: active = hit: reporter lowered or raised; inactive = not a hit.
The deposit covers about 21,000 reagents; shown is an unselected part of those that have a named target and a result. Of all reagents, 503 (2.4%) got an active call. 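Raw plate light values, not normalised; calls rest on replicate z-scores that were not deposited; hits include reporter decreases as well as increases.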 A number with no mark means an inactive call. Reagents against one gene are numbered here. Not given: the amount of reagent, the time to read-out.

Which result is listed for CG13872?
firefly Hh reporter signal, replicate 1: 1.08e5; firefly Hh reporter signal, replicate 2: 56181; Renilla reference signal, replicate 1: 3061; Renilla reference signal, replicate 2: 4379

With CG12728, how do the results read?
firefly Hh reporter signal, replicate 1: 78490; firefly Hh reporter signal, replicate 2: 67720; Renilla reference signal, replicate 1: 2253; Renilla reference signal, replicate 2: 1648

With rhi, what does the deposit list?
firefly Hh reporter signal, replicate 1: 70907; firefly Hh reporter signal, replicate 2: 47616; Renilla reference signal, replicate 1: 1881; Renilla reference signal, replicate 2: 3159

With Hn, what does the deposit list?
firefly Hh reporter signal, replicate 1: 1.07e5; firefly Hh reporter signal, replicate 2: 72474; Renilla reference signal, replicate 1: 4680; Renilla reference signal, replicate 2: 3001

With CG2663, how do the results read?
firefly Hh reporter signal, replicate 1: 94932; firefly Hh reporter signal, replicate 2: 1.40e5; Renilla reference signal, replicate 1: 3304; Renilla reference signal, replicate 2: 3835

An excerpt from the list above, as a working copy:
rhi: firefly Hh reporter signal, replicate 1 = 70907; firefly Hh reporter signal, replicate 2 = 47616; Renilla reference signal, replicate 1 = 1881; Renilla reference signal, replicate 2 = 3159
Hn: firefly Hh reporter signal, replicate 1 = 1.07e5; firefly Hh reporter signal, replicate 2 = 72474; Renilla reference signal, replicate 1 = 4680; Renilla reference signal, replicate 2 = 3001

Additional entries follow:
For CG15160, what does the deposit list?
firefly Hh reporter signal, replicate 1: 92642; firefly Hh reporter signal, replicate 2: 71088; Renilla reference signal, replicate 1: 1945; Renilla reference signal, replicate 2: 7185

What is on record for Vha68-1?
firefly Hh reporter signal, replicate 1: 1.59e5; firefly Hh reporter signal, replicate 2: 78980; Renilla reference signal, replicate 1: 4834; Renilla reference signal, replicate 2: 6921

With CG1138, what does the deposit list?
firefly Hh reporter signal, replicate 1: 22176; firefly Hh reporter signal, replicate 2: 60521; Renilla reference signal, replicate 1: 801; Renilla reference signal, replicate 2: 1682

What is on record for CG1074?
firefly Hh reporter signal, replicate 1: 1.76e5; firefly Hh reporter signal, replicate 2: 1.07e5; Renilla reference signal, replicate 1: 7168; Renilla reference signal, replicate 2: 4513

For SMC2, what was measured?
firefly Hh reporter signal, replicate 1: 97043; firefly Hh reporter signal, replicate 2: 64161; Renilla reference signal, replicate 1: 3907; Renilla reference signal, replicate 2: 2745

Which result is listed for Ids?
firefly Hh reporter signal, replicate 1: 84033; firefly Hh reporter signal, replicate 2: 44107; Renilla reference signal, replicate 1: 2579; Renilla reference signal, replicate 2: 3601

For shps, what was measured?
firefly Hh reporter signal, replicate 1: 4.96e5; firefly Hh reporter signal, replicate 2: 84838; Renilla reference signal, replicate 1: 22646; Renilla reference signal, replicate 2: 2388

What is on record for CG15676?
firefly Hh reporter signal, replicate 1: 94468; firefly Hh reporter signal, replicate 2: 59202; Renilla reference signal, replicate 1: 2428; Renilla reference signal, replicate 2: 5379

For bab1 #1, what does the deposit list?
firefly Hh reporter signal, replicate 1: 1.32e5; firefly Hh reporter signal, replicate 2: 3.58e5; firefly Hh reporter signal, replicate 3: 74981; Renilla reference signal, replicate 1: 4147; Renilla reference signal, replicate 2: 23620

For bab1 #2, what does the deposit list?
firefly Hh reporter signal, replicate 1: 1.27e5; firefly Hh reporter signal, replicate 2: 44968; Renilla reference signal, replicate 1: 4843; Renilla reference signal, replicate 2: 3797
